Source: patent publication US20170304346A1, “USE OF NADH OR SALT THEREOF IN PREPARATION OF DRUGS OR HEALTH-CARE PRODUCTS FOR TREATING PHENYLKETONURIA” (BONTAC BIO-ENGINEERING (SHENZHEN) CO., LTD, priority 2014, published 2017)
At least one compound was matched to its structure with a doubt left.

System: patients with PKU
Test: Adjuvant therapy of phenylketonuria (PKU) patients with oral NADH, blood test of body indices
Assay type: in vivo, human

NC(=O)C1=CN([C@@H]2O[C@H](COP(=O)(O)OP(=O)(O)OC[C@H]3O[C@@H](n4cnc5c(N)ncnc54)[C@H](O)[C@@H]3O)[C@@H](O)[C@H]2O)C=CC1 [NADH, Nicotinamide adenine dinucleotide]
blood test indices of the patient's body (Case 1: 5 mg NADH every morning on an empty stomach, 4 weeks of treatment, special food reduced daily, blood test after one week): no obvious abnormal indices are present
blood test indices of the patient's body (Case 1: 5 mg NADH every morning, additional 2 months of treatment, special food halved in the second month, blood test after one week): no obvious abnormal indices are present
blood test indices of the patient's body (Case 2: 10 mg NADH every morning on an empty stomach, 8 weeks of treatment, special food reduced daily, blood test after one week): no obvious abnormal indices are present
blood test indices of the patient's body (Case 2: 10 mg NADH every morning, normal food gradually increased, blood test after one month): no obvious abnormal indices are present
blood test indices of the patient's body (Case 3: 5 mg NADH every morning on an empty stomach, blood test after 12 weeks, special food halved in the 8th week): no obvious abnormal indices are present
blood test indices of the patient's body (Case 4: 5 mg NADH every morning on an empty stomach, blood test after consecutive 6 months, no special food in the 6th month): no obvious abnormal indices are present
amelioration of PKU (patients with PKU orally taking drugs or health-care products containing NADH, summary statement): PKU is obviously ameliorated
